Some of the results follow. Shown are side measurements of this screen, not its main read-out; they come without a call. Most of these compounds were active or inconclusive in the main read-out, so they are no random draw. Potencies come from curve fits of mixed quality, noted in brackets.
Test: qHTS Assay for Lipid Storage Modulators in Drosophila S3 Cells;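 for cell number change: cells counted by Cell Tracker Red CMTPX staining in the red channel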
Settings: BODIPY lipid droplet fluorescence, 18-24 h; for cell number change: measured here: cell count max response, cells fed with added oleic acid
How it was run: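 Laser-scanning cytometry quantifies lipid droplet accumulation (500–530 nm total intensity; droplet/cell object ratio) in oleic acid-fed (400 uM added) Drosophila S3 cells treated with a concentration series. 20 uM Triacsin C defined 100% inhibition.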

[1] = measured here: lipid fluorescence (Fed channel) AC50, cells fed with added oleic acid
[2] = measured here: cell number channel AC50, cells fed with added oleic acid

Structure (SMILES)	cell number change [%]	AC50 [1]	AC50 [2]
COc1ccc(S(=O)(=O)N(CC(=O)NCc2ccncc2)c2ccc(C)cc2)cc1OC	-11.8	1.26 µM [falling, full curve, poor fit]	–
O=C(NCCN1CCN(c2ccccc2)CC1)C1(S(=O)(=O)c2ccc(Cl)cc2)CC1	8.9	29.1 µM [rising, single point]	–
COC(=O)CCN(C(=O)C1C2CC3CC(C2)CC1C3)c1ccccn1 (centres undefined)	-8.8	0.517 µM [falling, single point]	–
COc1ccc(-n2cnc3scc(-c4ccccc4)c3c2=O)cc1	-5.29	–	–
CC1Cc2cc(/C(O)=C3/C(=O)C(=O)N(CCCn4ccnc4)C3c3ccco3)ccc2O1 (centres undefined)	2.1	20.6 µM [falling, single point]	–
O=C(CCCc1ccccc1)NCc1ccc(Cl)cc1	10.6	–	–
COc1ccc(C(=O)OC(C)C(=O)NCC2CCCCC2)cc1S(=O)(=O)N1CCOCC1 (centres undefined)	16.4	–	–
Cc1cc(C)n(C(C)Sc2ccccc2)n1 (centres undefined)	23.2	20.6 µM [rising, partial curve, poor fit]	–
Cc1onc(-c2ccccc2)c1C(=O)Nc1nnc(C(C)C)s1	-12.9	29.1 µM [rising, single point]	–
O=C(CCc1ccccc1)NC(=S)Nc1ccccc1Br	-35.2	–	–
Cc1nn(C)c(C(=O)N2CCN(C(=O)c3ccco3)CC2)c1Br	-18.6	16.4 µM [falling, partial curve, poor fit]	–
CCCCn1c(=NC(=O)c2cccnc2)c(C#N)cc2c(=O)n3cccc(C)c3nc21	14.6	0.411 µM [rising, full curve]	–
CCc1cc(C(=O)NNC(=O)c2csc(N3CCOCC3)n2)sc1C	1.2	–	–
COc1ccc(C(CNc2ccc(S(=O)(=O)N3CCN(C)CC3)cc2[N+](=O)[O-])N(C)C)cc1 (centres undefined)	100	–	20.6 µM [rising, single point]
COc1ccc(NC(=O)CSc2n[nH]c(N)n2)c([N+](=O)[O-])c1	30.2	–	1.3 µM [rising, full curve, poor fit]
CN(CCC(=O)Nc1ccc2c(c1)OCO2)Cc1ccccc1	-2.77	0.259 µM [falling, partial curve, poor fit]	–
O=C(NCCCN1CCOCC1)c1ccc(S(=O)(=O)Nc2cccc(C(F)(F)F)c2)cc1	45.4	–	23.1 µM [rising, single point]
Cc1ccc(-c2nc(-c3ccccn3)no2)cc1[N+](=O)[O-]	18	–	–
CCCc1nc2ccccc2n1CC(O)COc1ccc(NC(C)=O)cc1 (centres undefined)	-33.9	13 µM [falling, partial curve]	20.6 µM [falling, single point]
O=C(COc1ccccc1[N+](=O)[O-])N/N=C/c1ccc[nH]1	16.7	29.1 µM [rising, single point]	–
Nc1nc(Cl)cc(Nc2ccccc2Cl)n1	8.8	18.4 µM [rising, single point]	–

Structure (SMILES)	cell number change [%]	AC50 [1]	AC50 [2]
CC(=O)N1CCN(c2ccc(NC(=O)c3ccc4c(c3)OCCO4)cc2)CC1	26.8	5.8 µM [rising, single point]	–
CC1(C)CC(=O)/C(=C(/O)Cc2ccccc2)C(=NCCc2ccccc2)C1	9.84	2.59 µM [rising, partial curve, poor fit]	–
CCOC(=O)CCNCC1COc2ccccc2O1 (centres undefined)	-49.3	25.9 µM [falling, partial curve]	18.4 µM [falling, partial curve, poor fit]
COc1ccc(NC(=O)C(=O)Nc2cccc3cccnc23)c(OC)c1	-11.7	–	–
CCOc1ccc2nc(NC(=O)c3cccnc3)sc2c1	18.3	5.8 µM [rising, single point]	–
Cc1cc(C)cc(N(CCC#N)C(=O)COC(=O)CN2C(=O)NC(C)(C)C2=O)c1	5.5	–	–
CC(=O)Cc1cc(O)c2ccccc2c1OC(=O)c1ccccc1	-9.87	25.9 µM [falling, single point]	–
COc1ccc(NC(=O)N2CCCC(C(=O)NCc3ccccc3F)C2)cc1 (centres undefined)	37	–	29.1 µM [rising, single point]
Cc1ccnc(NC(=O)c2ccc([N+](=O)[O-])s2)c1	–	10 µM [falling, partial curve]	–
COc1ccc(S(=O)(=O)N2CCCC(C(=O)NC3CCCC3)C2)cc1OC (centres undefined)	–	32.6 µM [falling, partial curve, poor fit]	–
Cc1cc(C)nc(NC(=O)CSc2nc3ccccc3s2)n1	–	3.26 µM [rising, partial curve]	1.84 µM [rising, partial curve, poor fit]
CCN(CC(=O)Nc1c(F)cccc1F)C(=O)/C=C/c1ccc2ccccc2n1	-9.47	0.291 µM [falling, partial curve, poor fit]	–
O=C(COC(=O)/C=C/c1cccs1)Nc1nc(-c2ccccc2)cs1	1.59	–	–
CCN1C(=O)C(=O)N(CC(=O)c2[nH]c(C)c(C(C)=O)c2C)C1=O	11.9	0.0731 µM [falling, full curve, poor fit]	–
CCOC(=O)C1C(=O)OC(C)(C)C1C(C)C(=O)c1ccc(C)cc1 (centres undefined)	-12.2	0.0517 µM [rising, full curve, poor fit]	1.03 µM [falling, full curve]
COc1cc(C2C(C#N)=C(N)N(c3cccnc3)C3=C2C(=O)CC(C)(C)C3)ccc1O (centres undefined)	49.5	0.82 µM [rising, full curve]	1.3 µM [rising, full curve]
COc1ccc(C(=O)CCN2CCCC(C)C2)cc1 (centres undefined)	–	29.1 µM [falling, single point]	–
CC(C)Sc1cc(N2CCCC2)nc(-c2ccccc2Cl)n1	79.5	0.461 µM [rising, partial curve, poor fit]	29.1 µM [rising, partial curve, poor fit]
CC(C)(C)OC(=O)N1CCC(c2c(C(=O)NCC3CCN(C4CCCC4)C3)cnn2-c2ccccc2Cl)CC1 (centres undefined)	-20.3	–	–
COc1cccc(COC(=O)c2sc3nc4n(c(=O)c3c2C)CCC4)c1OC	152	–	3.66 µM [rising, partial curve]
N#Cc1c(-c2ccncc2)cc(-c2ccc(F)cc2)nc1N	15	–	–

Structure (SMILES)	cell number change [%]	AC50 [1]	AC50 [2]
CCC1(C)Cc2c(sc3nc(SC)[nH]c(=O)c23)CO1 (centres undefined)	34.8	–	–
COc1ccc2c(CC(=O)Nc3ccccc3N3CCOCC3)coc2c1	14.3	–	5.17 µM [falling, single point]
Cn1c(=O)c2c(ncn2CCCc2ccccc2)n(C)c1=O	-16	–	–
COc1ccc(N(CC(=O)Nc2ccc(C(C)C)cc2)S(=O)(=O)c2c(C)noc2C)cc1	2.36	25.9 µM [rising, single point]	–
CSCCC(NC(=O)c1cccc(S(=O)(=O)N2CCOCC2)c1)C(=O)Nc1cccc(C)c1 (centres undefined)	-0.236	9.2 µM [rising, partial curve]	–
COc1cccc(OCCCCCCN2CCOCC2)c1	-2.43	6.51 µM [falling, single point]	–
Cc1ccccc1NS(=O)(=O)c1ccc2[nH]cc(C(=O)NC3CCCCC3)c(=O)c2c1	-32	25.9 µM [falling, single point]	29.1 µM [falling, single point]
Cn1c(SCC(=O)N(C2CCCCC2)C2CCCCC2)nnc1-c1cccs1	-37.1	32.6 µM [falling, single point]	32.6 µM [falling, single point]
COc1ccc(CCNC(=O)CSc2cccc3cccnc23)cc1OC	-11.7	3.66 µM [falling, partial curve]	–
CN(CCNC(=O)C1CCN(c2ncnc3c2nc2n3CCCCC2)CC1)Cc1ccccc1	21.6	–	0.0461 µM [rising, full curve, poor fit]
NC(=O)c1nsc(C(=O)N(Cc2cccnc2)C(C(=O)NCc2ccccc2)c2ccc(O)cc2)c1N (centres undefined)	8.06	–	–
CC(C)(C)C(=O)N(Cc1ccccc1)c1ccccn1	-25.6	29.1 µM [falling, single point]	–
CC(=O)N1CCN(Cc2nc3cc(NC(=O)Cn4nc(C)c5ccccc5c4=O)ccc3n2C)CC1	-15.6	–	6.51 µM [falling, single point]
C=CCOc1ccc(C(=O)N(Cc2ccc(N(C)C)cc2)C2CCS(=O)(=O)C2)cc1 (centres undefined)	32.5	2.31 µM [rising, partial curve]	1.46 µM [rising, full curve, poor fit]
O=C(N/N=C/c1cc2cc3c(cc2nc1Cl)OCCO3)c1ccccc1O	-20.3	6.51 µM [falling, partial curve]	–
Cc1ccc(SCCSc2nc(N)cc(=O)[nH]2)cc1	-32	–	29.1 µM [falling, single point]
CC(C)=CCN1CCN(Cc2cnc(N3CCOCC3)s2)CC1CCO (centres undefined)	–	20.6 µM [falling, partial curve]	–
CCN(CC)S(=O)(=O)c1ccc(NC(=O)CN(c2cccc(C)c2)S(C)(=O)=O)cc1	-30.2	29.1 µM [falling, single point]	29.1 µM [falling, single point]
Cc1ccc(CNC(=O)c2cc(C)nn2-c2ccccc2)cc1	24.8	2.31 µM [rising, single point]	0.103 µM [rising, full curve, poor fit]

Random excerpt: 4 records from the list
Structure (SMILES)	cell number change [%]	AC50 [1]	AC50 [2]
CCOC(=O)C1C(=O)OC(C)(C)C1C(C)C(=O)c1ccc(C)cc1 (centres undefined)	-12.2	0.0517 µM [rising, full curve, poor fit]	1.03 µM [falling, full curve]
CCN(CC)S(=O)(=O)c1ccc(NC(=O)CN(c2cccc(C)c2)S(C)(=O)=O)cc1	-30.2	29.1 µM [falling, single point]	29.1 µM [falling, single point]
Cc1ccc(CNC(=O)c2cc(C)nn2-c2ccccc2)cc1	24.8	2.31 µM [rising, single point]	0.103 µM [rising, full curve, poor fit]
CC(C)Sc1cc(N2CCCC2)nc(-c2ccccc2Cl)n1	79.5	0.461 µM [rising, partial curve, poor fit]	29.1 µM [rising, partial curve, poor fit]
